Laboratory results as given in patent US11560518B2, “Polymerizable liquid crystal compound, polymerizable composition, polymer, retardation film, method for producing retardation film, transfer laminate, optical member, method for producing optical member, and display device” (DAI NIPPON PRINTING CO., LTD., priority 2017, dated 2023).
Some ranges recur; such a range may be that of the whole group of compounds.

Tests used:
[1] = Alignment property of the retardation layer observed with a polarizing microscope; details: cured 1 μm retardation layer; compound 100% by mass of polymerizable liquid crystal compound; photo-alignment film
[2] = Retardation (wavelength dispersion property): in-plane retardation Re at 450, 550 and 650 nm by KOBRA-WR, layer formed on photo-alignment film; details: x=Re(450)/Re(550), y=Re(650)/Re(550), compound 100% by mass
[3] = Birefringence index Δn at 550 nm from in-plane retardation Re at 550 nm and film thickness d; details: compound 100% by mass
[4] = Wavelength dispersion property of retardation layer formed on rubbing-treated polyimide alignment film-attached glass; details: dried at solid-liquid crystal phase transition temperature + 10° C., single compound

## C=CC(=O)OCCCCCCOc1ccc(OC(=O)C2CCC(C(=O)Oc3ccc(-c4ccc(OC(=O)C5CCC(C(=O)Oc6ccc(OCCCCCCOC(=O)C=C)cc6)CC5)c(/C=N/N(CCCCCC)c5nc6ccccc6s5)c4)cc3/C=N/N(CCCCCC)c3nc4ccccc4s3)CC2)cc1 (stereo not drawn) [Compound 1]
[1]
  Alignment property: A (Uniform alignment was found by visual observation, and the aligned area was found to be 90% or more by the polarizing microscopy.)
[2]
  Wavelength dispersion property: A (0.6≤x<0.90 and 1<y (reverse wavelength dispersion property))
[3]
  Birefringence: A (0.08 or more)

## C=CC(=O)OCCCCCCOc1ccc(OC(=O)C2CCC(C(=O)Oc3ccc(-c4ccc(OC(=O)C5CCC(C(=O)Oc6ccc(OCCCCCCOC(=O)C=C)cc6)CC5)c(/C=N/N(CCCCCC)c5nc6ccc(F)cc6s5)c4)cc3/C=N/N(CCCCCC)c3nc4ccc(F)cc4s3)CC2)cc1 (stereo not drawn) [Compound 2]
[1]
  Alignment property: A (Uniform alignment was found by visual observation, and the aligned area was found to be 90% or more by the polarizing microscopy.)
[2]
  Wavelength dispersion property: A (0.6≤x<0.90 and 1<y (reverse wavelength dispersion property))
[3]
  Birefringence: A (0.08 or more)

## C=CC(=O)OCCCCCCOc1ccc(OC(=O)C2CCC(C(=O)Oc3ccc(-c4ccc(OC(=O)C5CCC(C(=O)Oc6ccc(OCCCCCCOC(=O)C=C)cc6)CC5)c(/C=N/N(CCCCCC)c5nc6ccc(OCC)cc6s5)c4)cc3/C=N/N(CCCCCC)c3nc4ccc(OCC)cc4s3)CC2)cc1 (stereo not drawn) [Compound 3]
[1]
  Alignment property: A (Uniform alignment was found by visual observation, and the aligned area was found to be 90% or more by the polarizing microscopy.)
[2]
  Wavelength dispersion property: A (0.6≤x<0.90 and 1<y (reverse wavelength dispersion property))
[3]
  Birefringence: A (0.08 or more)

## C=CC(=O)OCCCCCCOc1ccc(OC(=O)C2CCC(C(=O)Oc3ccc(-c4ccc(OC(=O)C5CCC(C(=O)Oc6ccc(OCCCCCCOC(=O)C=C)cc6)CC5)c(/C=N/N(CCOCCOC)c5nc6ccccc6s5)c4)cc3/C=N/N(CCOCCOC)c3nc4ccccc4s3)CC2)cc1 (stereo not drawn) [Compound 4]
[1]
  Alignment property: A (Uniform alignment was found by visual observation, and the aligned area was found to be 90% or more by the polarizing microscopy.)
[2]
  Wavelength dispersion property: A (0.6≤x<0.90 and 1<y (reverse wavelength dispersion property))
[3]
  Birefringence: A (0.08 or more)

## C=CC(=O)OCCCCCCOc1ccc(OC(=O)C2CCC(C(=O)Oc3ccc(-c4ccc(OC(=O)C5CCC(C(=O)Oc6ccc(OCCCCCCOC(=O)C=C)cc6)CC5)c(/C=N/N(CCCCCC)c5nc6ccc(OC)cc6s5)c4)cc3/C=N/N(CCCCCC)c3nc4ccc(OC)cc4s3)CC2)cc1 (stereo not drawn) [Compound 5]
[1]
  Alignment property: A (Uniform alignment was found by visual observation, and the aligned area was found to be 90% or more by the polarizing microscopy.)
[2]
  Wavelength dispersion property: A (0.6≤x<0.90 and 1<y (reverse wavelength dispersion property))
[3]
  Birefringence: A (0.08 or more)

## C=CC(=O)OCCCCCCOc1ccc(C(=O)OC2CCC(C(=O)Oc3ccc(-c4ccc(OC(=O)C5CCC(OC(=O)c6ccc(OCCCCCCOC(=O)C=C)cc6)CC5)c(/C=N/N(CCCCCC)c5nc6ccccc6s5)c4)cc3/C=N/N(CCCCCC)c3nc4ccccc4s3)CC2)cc1 (stereo not drawn) [Compound 8]
[1]
  Alignment property: A (Uniform alignment was found by visual observation, and the aligned area was found to be 90% or more by the polarizing microscopy.)
[2]
  Wavelength dispersion property: A (0.6≤x<0.90 and 1<y (reverse wavelength dispersion property))
[3]
  Birefringence: A (0.08 or more)

## C=CC(=O)OCCCCCCOc1ccc(OC(=O)C2CCC(C(=O)Oc3ccc(-c4ccc(OC(=O)C5CCC(C(=O)Oc6ccc(OCCCCCCOC(=O)C=C)cc6)CC5)c(/C=N/N(CCOCCCC)c5nc6ccccc6s5)c4)cc3/C=N/N(CCOCCCC)c3nc4ccccc4s3)CC2)cc1 (stereo not drawn) [Compound 10]
[1]
  Alignment property: A (Uniform alignment was found by visual observation, and the aligned area was found to be 90% or more by the polarizing microscopy.)
[2]
  Wavelength dispersion property: A (0.6≤x<0.90 and 1<y (reverse wavelength dispersion property))
[3]
  Birefringence: A (0.08 or more)

## C=CC(=O)OCCCCCCOc1ccc(OC(=O)C2CCC(C(=O)Oc3ccc(-c4ccc(OC(=O)C5CCC(C(=O)Oc6ccc(OCCCCCCOC(=O)C=C)cc6)CC5)c(/C=N/N(CCOCCCC)c5nc6ccccc6o5)c4)cc3/C=N/N(CCOCCCC)c3nc4ccccc4o3)CC2)cc1 (stereo not drawn) [Compound 11]
[1]
  Alignment property: A (Uniform alignment was found by visual observation, and the aligned area was found to be 90% or more by the polarizing microscopy.)
[2]
  Wavelength dispersion property: A (0.6≤x<0.90 and 1<y (reverse wavelength dispersion property))
[3]
  Birefringence: A (0.08 or more)

## C=CC(=O)OCCCCCCOc1ccc(OC(=O)C2CCC(C(=O)Oc3ccc(-c4ccc(OC(=O)C5CCC(C(=O)Oc6ccc(OCCCCCCOC(=O)C=C)cc6)CC5)c(/C=N/N(CC5CCCO5)c5nc6ccccc6s5)c4)cc3/C=N/N(CC3CCCO3)c3nc4ccccc4s3)CC2)cc1 (stereo not drawn) [Compound 13]
[1]
  Alignment property: A (Uniform alignment was found by visual observation, and the aligned area was found to be 90% or more by the polarizing microscopy.)
[2]
  Wavelength dispersion property: A (0.6≤x<0.90 and 1<y (reverse wavelength dispersion property))
[3]
  Birefringence: A (0.08 or more)

## C=CC(=O)OCCCCCCOc1ccc(C(=O)O[C@H]2CC[C@H](OC(=O)c3ccc(OCCCCCCOC(=O)C=C)cc3)CC2)cc1 [Compound B-6]
[4]
  Wavelength dispersion property: C (0.95≤x<1 and 1<y)

## C=CC(=O)OCCCCCCOc1ccc(OC(=O)C2CCC(C(=O)Oc3ccc(OC(=O)C4CCC(C(=O)Oc5ccc(OCCCCCCOC(=O)C=C)cc5)CC4)c(/C=N/N(CCCCCC)c4nc5ccccc5s4)c3)CC2)cc1 (stereo not drawn) [compound 1, reference compound]
[1]
  Alignment property: A (Uniform alignment was found by visual observation, and the aligned area was found to be 90% or more by the polarizing microscopy.)
[2]
  Wavelength dispersion property: A (0.6≤x<0.90 and 1<y (reverse wavelength dispersion property))
[3]
  Birefringence: C (Less than 0.075)
[4]
  Wavelength dispersion property: A (0.6≤x<0.90 and 1<y (reverse wavelength dispersion property))

## C=CC(=O)OCCCCCCOc1ccc(C(=O)Oc2ccc(-c3ccc(OC(=O)c4ccc(OCCCCCCOC(=O)C=C)cc4)c(/C=N/Nc4nc5ccccc5s4)c3)cc2)cc1 [compound 2, reference compound]
[1]
  Alignment property: B (The same level of alignment as A was not found by visual observation, and the aligned area was found to be 50% or more and less than 90% by the polarizing microscopy.)
[2]
  Wavelength dispersion property: C (0.95≤x<1 and 1<y)
[3]
  Birefringence: C (Less than 0.075)
[4]
  Wavelength dispersion property: C (0.95≤x<1 and 1<y)
